This is an account of results in patent US12617757B2, “Compounds and modules for inhibition of pre-miR-21 and their use in treatment of certain cancers” (University of Florida Research Foundation, Incorporated, priority 2019, dated 2026).

The data set has as its system proteome of MDA-MB-231 cells. In words: Global proteomics profiling (LC-MS/MS) of MDA-MB-231 cells. The class given is cell-based, human. Conditions: 50 nM. As for the experimental part:
Global proteomics profiling using LC-MS/MS. The MDA-MB-231 cells treated with vehicle (DMSO) or 5 (50 nM) were washed with PBS, harvested by scraping, centrifuged at 1500×g for five minutes at 4° C. and then resuspended in PBS. Cells were lysed by sonication and lysate protein concentrations were determined using a Bradford assay (Bio-Rad). Protein samples (40 μg) were denatured with 6 M urea in 50 mM NH4HCO3, reduced with 10 mM tris(2-carboxyethyl)phosphine hydrochloride (TCEP) for 30 minutes, and then alkylated with 25 mM iodoacetamide for 30 minutes in the dark. Samples were diluted to 2 M urea with 50 mM NH4HCO3, and digested with trypsin (2 μL of 0.5 μg/μL) in the presence of 1 mM CaCl2) for 12 hours at 37° C. […] Samples were analyzed by LC-MS/MS (see below) and the MS data was processed with MaxQuant and Proteome Discoverer (see below).
LC-MS/MS analysis: Peptides were resuspended in water with 0.1% formic acid (FA) and analyzed using an EASY-nLC 1200 nano-UHPLC coupled to Q Exactive HF-X Quadrupole-Orbitrap mass spectrometer (Thermo Scientific). […]
MaxQuant analysis: The MS data was analyzed with MaxQuant (V1.6.1.0)^27 and searched against the human proteome (Uniprot) and a common list of contaminants (included in MaxQuant). […] The minimum peptide length was set to 6 amino acids and peptide re-quantification and label-free quantification (MaxLFQ) were enabled. […]

Consider `CCCN(CC(=O)N(CCC)CC(=O)N(CCC)CC(=O)N(CC(=O)NCCOCCOCCOCCOc1ccc(C=C2SC(Nc3ccccc3)=C(C(=O)OCC)C2=O)cc1O)Cc1cn(CCCNC(=O)CCCOc2ccc(-c3nc4cc(-c5ccc(N6CCN(C)CC6)cc5)ccc4[nH]3)cc2)nn1)C(=O)CN(Cc1cn(CCCNC(=O)CCCOc2ccc(-c3nc4cc(-c5ccc(N6CCN(C)CC6)cc5)ccc4[nH]3)cc2)nn1)C(C)=O` [Compound 5], for which the “proteins significantly affected, of 4181” value came out at 47 proteins and the “shift among downstream protein targets of miR-let-7-5p” value is recorded as “no significant shift”.
